Patent US20050209345A1, “Lymphatic drug delivery system” (priority 2001, published 2005)

Assay: Thoracic lymph duct and portal vein cannulated greyhound dog study: lymphatic transport of halofantrine and triglyceride, systemic availability
Conditions: mean +/- sd

CCCCN(CCCC)CCC(O)c1cc2c(Cl)cc(Cl)cc2c2cc(C(F)(F)F)ccc12.Cl (stereo not shown) [Hf HCl]
Cum TG transport in lymph (fed dogs, 107 mg Hf HCl, over 12 h, n = 3): 32.5 ± 6.7 g

CCCCN(CCCC)CCC(O)c1cc2c(Cl)cc(Cl)cc2c2cc(C(F)(F)F)ccc12 (stereo not shown) [Hf base]
Cum TG transport in lymph (fasted dogs, oral 100 mg amorphous PEG 6000 solid dispersion, 0-10 h, n = 3): 0.7 ± 0.5 g
Cum TG transport in lymph (fed dogs, oral 100 mg amorphous PEG 6000 solid dispersion, over 12 h, n = 4): 33.8 ± 3.6 g

CCCCN(CCCC)CCC(O)c1cc2c(Cl)cc(Cl)cc2c2cc(C(F)(F)F)ccc12 (stereo not shown) [Hf, halofantrine]
Cum TG transport in lymph (fed dogs, IV 2 mg/kg, over 12 h, n = 3): 29.0 ± 4.4 g
